Measured values taken from the supplement of paper PMC12823440, “Inhibitors supercharge kinase turnover through native proteolytic circuits” (Nature, 2025).
This is one part of the list. Hit calls seldom repeat between salt and free forms of one compound.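 Kinases, fused to nanoluciferase, were expressed in K562 cells; luminescence was measured every 4 h from 2 to 18 h as percent of control (DMSO = 100%, positive control = 0%). A time point is decreased if signal falls significantly (2 sigma). Hits were called by the authors by a rule that is not shown; the count of time points alone does not decide it.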

Amino acid sequences for entries named in this document (tags omitted). A change or cut given only in a name is not applied to a line headed by its entry.
UniProt Q05397, whole entry, looked up: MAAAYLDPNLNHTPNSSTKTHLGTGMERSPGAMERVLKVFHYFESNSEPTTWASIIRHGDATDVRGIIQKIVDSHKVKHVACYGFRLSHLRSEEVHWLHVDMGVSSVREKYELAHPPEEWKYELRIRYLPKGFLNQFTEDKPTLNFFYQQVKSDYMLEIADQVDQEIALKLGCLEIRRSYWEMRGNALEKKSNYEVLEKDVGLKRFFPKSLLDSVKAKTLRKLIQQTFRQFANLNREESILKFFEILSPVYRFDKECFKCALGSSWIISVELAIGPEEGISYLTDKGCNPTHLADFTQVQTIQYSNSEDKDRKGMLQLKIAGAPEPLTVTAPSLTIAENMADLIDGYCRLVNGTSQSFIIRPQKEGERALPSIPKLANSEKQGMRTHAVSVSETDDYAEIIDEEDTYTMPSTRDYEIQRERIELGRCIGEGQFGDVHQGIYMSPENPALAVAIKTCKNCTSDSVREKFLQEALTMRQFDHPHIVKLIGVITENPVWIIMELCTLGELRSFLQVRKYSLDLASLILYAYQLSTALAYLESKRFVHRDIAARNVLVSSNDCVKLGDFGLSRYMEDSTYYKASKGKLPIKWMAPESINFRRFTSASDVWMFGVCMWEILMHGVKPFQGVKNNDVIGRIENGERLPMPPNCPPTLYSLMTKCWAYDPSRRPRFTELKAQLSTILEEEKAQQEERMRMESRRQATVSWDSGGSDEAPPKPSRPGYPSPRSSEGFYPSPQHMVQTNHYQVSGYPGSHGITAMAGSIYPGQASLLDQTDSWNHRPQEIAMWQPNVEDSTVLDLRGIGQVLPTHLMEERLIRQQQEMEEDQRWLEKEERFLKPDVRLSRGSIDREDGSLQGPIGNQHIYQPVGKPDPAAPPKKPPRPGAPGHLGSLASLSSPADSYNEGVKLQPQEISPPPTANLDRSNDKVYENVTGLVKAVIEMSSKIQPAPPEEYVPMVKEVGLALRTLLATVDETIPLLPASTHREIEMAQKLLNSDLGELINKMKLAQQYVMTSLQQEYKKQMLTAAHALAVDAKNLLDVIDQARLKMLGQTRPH
UniProt Q13546: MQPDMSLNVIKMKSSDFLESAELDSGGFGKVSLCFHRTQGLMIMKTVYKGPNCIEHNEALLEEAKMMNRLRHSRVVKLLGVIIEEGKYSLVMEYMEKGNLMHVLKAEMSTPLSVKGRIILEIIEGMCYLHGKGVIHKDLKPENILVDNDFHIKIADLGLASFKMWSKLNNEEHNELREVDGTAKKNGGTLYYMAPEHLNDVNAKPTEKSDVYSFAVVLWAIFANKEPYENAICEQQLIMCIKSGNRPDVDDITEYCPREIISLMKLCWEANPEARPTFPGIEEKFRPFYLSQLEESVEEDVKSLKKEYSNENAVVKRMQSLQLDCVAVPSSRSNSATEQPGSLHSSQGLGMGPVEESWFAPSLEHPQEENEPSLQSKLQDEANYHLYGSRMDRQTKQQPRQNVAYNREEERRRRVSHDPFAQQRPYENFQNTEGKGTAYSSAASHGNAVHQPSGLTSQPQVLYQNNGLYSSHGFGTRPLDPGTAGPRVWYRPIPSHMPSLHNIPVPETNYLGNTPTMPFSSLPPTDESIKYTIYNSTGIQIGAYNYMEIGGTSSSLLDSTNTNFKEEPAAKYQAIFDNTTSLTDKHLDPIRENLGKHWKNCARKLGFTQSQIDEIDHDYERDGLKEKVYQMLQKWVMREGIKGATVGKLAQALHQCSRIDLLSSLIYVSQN
UniProt Q01974, whole entry: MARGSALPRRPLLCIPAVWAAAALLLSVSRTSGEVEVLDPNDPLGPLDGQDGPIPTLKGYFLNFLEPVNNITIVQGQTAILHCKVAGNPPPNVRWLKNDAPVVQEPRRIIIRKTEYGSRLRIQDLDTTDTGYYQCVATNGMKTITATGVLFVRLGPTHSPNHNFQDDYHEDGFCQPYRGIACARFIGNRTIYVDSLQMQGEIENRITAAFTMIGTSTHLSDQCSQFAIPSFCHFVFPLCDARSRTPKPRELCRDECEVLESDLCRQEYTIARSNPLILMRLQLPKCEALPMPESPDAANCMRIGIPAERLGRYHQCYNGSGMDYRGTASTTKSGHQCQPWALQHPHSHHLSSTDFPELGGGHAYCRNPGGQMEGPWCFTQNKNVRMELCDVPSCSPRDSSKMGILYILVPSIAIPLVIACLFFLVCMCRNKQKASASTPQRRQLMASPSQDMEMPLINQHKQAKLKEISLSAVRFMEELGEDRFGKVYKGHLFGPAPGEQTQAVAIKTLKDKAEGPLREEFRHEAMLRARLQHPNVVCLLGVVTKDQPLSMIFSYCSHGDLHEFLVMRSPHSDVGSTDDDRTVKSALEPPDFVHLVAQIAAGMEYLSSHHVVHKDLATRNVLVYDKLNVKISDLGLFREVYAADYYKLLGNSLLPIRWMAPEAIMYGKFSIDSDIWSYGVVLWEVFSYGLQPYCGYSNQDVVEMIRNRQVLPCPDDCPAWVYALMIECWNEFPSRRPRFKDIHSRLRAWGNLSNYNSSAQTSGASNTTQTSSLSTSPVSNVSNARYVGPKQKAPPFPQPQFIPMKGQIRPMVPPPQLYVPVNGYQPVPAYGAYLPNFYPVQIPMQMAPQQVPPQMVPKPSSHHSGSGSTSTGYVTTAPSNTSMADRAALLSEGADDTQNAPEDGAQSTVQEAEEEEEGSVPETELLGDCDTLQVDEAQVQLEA
UniProt Q15418, whole entry: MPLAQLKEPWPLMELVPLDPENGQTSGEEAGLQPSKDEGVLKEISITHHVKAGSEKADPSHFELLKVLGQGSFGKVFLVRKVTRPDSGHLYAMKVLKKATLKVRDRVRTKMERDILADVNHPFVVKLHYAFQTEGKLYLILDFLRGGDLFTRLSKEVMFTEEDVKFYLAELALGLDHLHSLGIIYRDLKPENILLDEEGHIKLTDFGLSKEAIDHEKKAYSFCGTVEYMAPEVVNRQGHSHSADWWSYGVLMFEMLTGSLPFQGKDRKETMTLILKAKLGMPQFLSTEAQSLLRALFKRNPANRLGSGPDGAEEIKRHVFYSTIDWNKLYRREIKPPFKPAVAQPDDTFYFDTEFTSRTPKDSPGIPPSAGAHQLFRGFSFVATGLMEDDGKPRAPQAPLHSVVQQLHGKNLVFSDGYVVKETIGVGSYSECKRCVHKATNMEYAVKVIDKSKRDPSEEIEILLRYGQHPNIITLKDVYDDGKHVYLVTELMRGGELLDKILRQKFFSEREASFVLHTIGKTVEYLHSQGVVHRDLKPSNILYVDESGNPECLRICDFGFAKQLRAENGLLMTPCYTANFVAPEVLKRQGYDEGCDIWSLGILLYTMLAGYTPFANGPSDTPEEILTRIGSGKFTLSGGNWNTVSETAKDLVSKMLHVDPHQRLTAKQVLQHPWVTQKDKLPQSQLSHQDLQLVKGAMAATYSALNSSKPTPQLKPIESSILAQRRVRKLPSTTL
UniProt Q9NYA1, whole entry: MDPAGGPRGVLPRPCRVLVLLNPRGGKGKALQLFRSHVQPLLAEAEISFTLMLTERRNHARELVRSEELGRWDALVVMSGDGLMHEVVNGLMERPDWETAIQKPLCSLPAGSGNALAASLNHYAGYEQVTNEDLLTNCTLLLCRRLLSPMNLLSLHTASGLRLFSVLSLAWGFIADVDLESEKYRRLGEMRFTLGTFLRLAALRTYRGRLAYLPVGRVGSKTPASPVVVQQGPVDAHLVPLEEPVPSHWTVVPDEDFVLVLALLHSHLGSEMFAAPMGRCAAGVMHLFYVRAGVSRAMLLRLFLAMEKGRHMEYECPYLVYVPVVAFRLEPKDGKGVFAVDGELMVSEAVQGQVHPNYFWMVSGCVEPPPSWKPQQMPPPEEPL
UniProt Q15208: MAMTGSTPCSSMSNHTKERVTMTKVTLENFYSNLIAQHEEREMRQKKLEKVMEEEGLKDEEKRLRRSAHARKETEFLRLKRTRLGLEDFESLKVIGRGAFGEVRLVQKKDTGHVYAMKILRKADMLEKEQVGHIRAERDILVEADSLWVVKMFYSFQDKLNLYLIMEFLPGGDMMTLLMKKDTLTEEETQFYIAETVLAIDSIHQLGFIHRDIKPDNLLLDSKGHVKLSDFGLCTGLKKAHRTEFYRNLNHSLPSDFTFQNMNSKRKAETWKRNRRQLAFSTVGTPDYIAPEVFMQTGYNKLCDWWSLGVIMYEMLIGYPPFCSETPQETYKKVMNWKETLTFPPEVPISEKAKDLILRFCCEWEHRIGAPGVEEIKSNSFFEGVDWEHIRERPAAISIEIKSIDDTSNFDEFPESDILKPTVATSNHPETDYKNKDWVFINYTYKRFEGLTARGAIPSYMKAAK
UniProt P42680: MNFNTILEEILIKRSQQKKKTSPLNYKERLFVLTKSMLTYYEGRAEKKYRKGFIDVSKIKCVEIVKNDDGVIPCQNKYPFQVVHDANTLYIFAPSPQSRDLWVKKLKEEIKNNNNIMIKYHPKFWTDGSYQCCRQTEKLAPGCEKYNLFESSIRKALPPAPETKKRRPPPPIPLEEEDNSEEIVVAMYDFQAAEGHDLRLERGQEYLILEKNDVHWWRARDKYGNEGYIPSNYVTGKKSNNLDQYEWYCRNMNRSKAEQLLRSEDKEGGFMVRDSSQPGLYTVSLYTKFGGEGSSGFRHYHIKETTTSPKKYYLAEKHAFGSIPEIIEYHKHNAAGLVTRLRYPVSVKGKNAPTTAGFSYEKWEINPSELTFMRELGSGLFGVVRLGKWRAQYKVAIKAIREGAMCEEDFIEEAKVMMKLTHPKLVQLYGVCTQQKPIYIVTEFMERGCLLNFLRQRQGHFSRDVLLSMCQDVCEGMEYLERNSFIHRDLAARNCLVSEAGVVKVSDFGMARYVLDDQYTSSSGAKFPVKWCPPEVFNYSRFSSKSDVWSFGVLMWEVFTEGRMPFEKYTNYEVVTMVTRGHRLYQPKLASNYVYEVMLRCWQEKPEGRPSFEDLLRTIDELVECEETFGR
UniProt P29597: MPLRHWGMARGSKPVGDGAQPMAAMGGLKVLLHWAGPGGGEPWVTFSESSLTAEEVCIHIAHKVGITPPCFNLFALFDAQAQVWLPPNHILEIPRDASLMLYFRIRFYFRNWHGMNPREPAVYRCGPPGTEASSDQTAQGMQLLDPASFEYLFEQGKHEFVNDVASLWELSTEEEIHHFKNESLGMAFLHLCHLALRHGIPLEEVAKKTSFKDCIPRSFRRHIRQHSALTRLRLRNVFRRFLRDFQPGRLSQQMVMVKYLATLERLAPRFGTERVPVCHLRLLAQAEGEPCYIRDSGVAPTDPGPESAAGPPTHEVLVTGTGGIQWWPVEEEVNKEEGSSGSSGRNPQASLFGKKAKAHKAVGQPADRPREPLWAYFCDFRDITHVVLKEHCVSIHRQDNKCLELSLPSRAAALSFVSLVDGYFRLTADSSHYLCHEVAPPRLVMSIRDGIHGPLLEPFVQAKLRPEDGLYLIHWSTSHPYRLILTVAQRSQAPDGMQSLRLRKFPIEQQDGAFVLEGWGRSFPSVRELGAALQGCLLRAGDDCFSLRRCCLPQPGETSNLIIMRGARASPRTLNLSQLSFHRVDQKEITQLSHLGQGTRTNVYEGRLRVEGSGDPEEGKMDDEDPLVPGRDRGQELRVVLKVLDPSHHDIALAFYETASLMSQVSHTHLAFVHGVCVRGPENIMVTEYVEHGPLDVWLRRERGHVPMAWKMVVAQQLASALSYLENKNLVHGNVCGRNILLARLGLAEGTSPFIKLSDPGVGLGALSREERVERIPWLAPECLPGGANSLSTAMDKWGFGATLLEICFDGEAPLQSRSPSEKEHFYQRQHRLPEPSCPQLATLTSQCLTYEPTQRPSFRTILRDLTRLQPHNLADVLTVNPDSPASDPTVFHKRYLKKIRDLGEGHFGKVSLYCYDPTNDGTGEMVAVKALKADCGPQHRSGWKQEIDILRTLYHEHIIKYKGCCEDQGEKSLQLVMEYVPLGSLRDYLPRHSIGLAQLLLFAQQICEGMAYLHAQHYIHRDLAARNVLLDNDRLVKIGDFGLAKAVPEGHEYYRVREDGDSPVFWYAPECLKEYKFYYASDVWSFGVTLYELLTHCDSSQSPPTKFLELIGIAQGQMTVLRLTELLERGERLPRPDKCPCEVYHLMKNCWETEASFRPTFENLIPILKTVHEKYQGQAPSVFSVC
UniProt Q6PHR2: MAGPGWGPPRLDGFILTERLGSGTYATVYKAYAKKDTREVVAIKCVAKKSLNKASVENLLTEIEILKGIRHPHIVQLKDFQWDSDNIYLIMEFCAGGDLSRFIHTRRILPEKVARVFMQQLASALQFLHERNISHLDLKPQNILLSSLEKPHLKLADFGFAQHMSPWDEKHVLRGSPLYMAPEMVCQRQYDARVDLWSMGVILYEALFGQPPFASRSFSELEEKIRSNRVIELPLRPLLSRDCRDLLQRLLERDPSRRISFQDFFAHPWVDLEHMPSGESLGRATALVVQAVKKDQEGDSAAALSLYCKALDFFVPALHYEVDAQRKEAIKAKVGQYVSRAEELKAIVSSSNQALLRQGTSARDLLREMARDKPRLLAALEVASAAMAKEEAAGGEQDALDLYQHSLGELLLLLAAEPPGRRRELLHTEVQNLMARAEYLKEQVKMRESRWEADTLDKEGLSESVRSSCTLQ

Columns and labels:
Test in all cases: number of time points (of 5) at which kinase-Nluc abundance scored as decreased, DMSO-normalised (count); higher = more persistent destabilization
Conditions in all cases: K562; 2-18 h
PRKCA = PRKCA (UniProt P17252)
PTK2 = PTK2 (UniProt Q05397)
PTK2B = PTK2B (UniProt Q14289)
RAF1 = RAF1 (UniProt P04049)
[1] = biological target: RAF1_S257L (clone: RAF1_mut) (UniProt P04049)
RET = RET (UniProt P07949)
[2] = biological target: RET_M918T (clone: RET_mut) (UniProt P07949)
RIOK1 = RIOK1 (UniProt Q9BRS2)
RIPK1 = RIPK1 (UniProt Q13546)
RIPK2 = RIPK2 (UniProt O43353)
ROR2 = ROR2 (UniProt Q01974)
RPS6KA1 = RPS6KA1 (UniProt Q15418)
SPHK1 = SPHK1 (UniProt Q9NYA1)
SRC = SRC (UniProt P12931)
STK24 = STK24 (UniProt Q9Y6E0)
STK38 = STK38 (UniProt Q15208)
SYK = SYK (UniProt P43405)
TEC = TEC (UniProt P42680)
TYK2 = TYK2 (UniProt P29597)
ULK3 = ULK3 (UniProt Q6PHR2)

Compound | number of time points (PRKCA) | number of time points (PTK2) | number of time points (PTK2B) | number of time points (RAF1) | number of time points [1] | number of time points (RET) | number of time points [2] | number of time points (RIOK1) | number of time points (RIPK1) | number of time points (RIPK2) | number of time points (ROR2) | number of time points (RPS6KA1) | number of time points (SPHK1) | number of time points (SRC) | number of time points (STK24) | number of time points (STK38) | number of time points (SYK) | number of time points (TEC) | number of time points (TYK2) | number of time points (ULK3)
O=c1oc2c(C3OCCCO3)c(O)ccc2c2c1CNCC2 (10 µM) | 0 | 0 | 0 | 0 | 0 | 0 | 0 | 0 | 0 | 0 | 0 | 0 | 0 | 0 | 0 | 0 | 0 | 0 | 0 | 0
COc1cc2ncnc(Nc3cccc(O)c3)c2cc1OC (10 µM) | 0 | 3 | 1 | 2 | 5 | 2 | 1 | 2 | 3 | 4 | 0 | 0 | 0 | 0 | 0 | 1 | 0 | 2 | 3 | 4
Oc1ccc(-c2nc(-c3ccc(F)cc3)c(-c3ccncc3)[nH]2)cc1 (2.5 µM) | 0 | 0 | 0 | 0 | 0 | 0 | 0 | 0 | 0 | 0 | 0 | 0 | 0 | 0 | 0 | 0 | 0 | 0 | 0 | 0
CCN1C(=O)N(c2c(F)c(OC)cc(OC)c2F)Cc2cnc3[nH]c(CN4CCOCC4)cc3c21 [Pemigatinib] (10 µM) | 0 | 0 | 0 | 0 | 0 | 0 | 0 | 0 | 0 | 0 | 0 | 0 | 0 | 0 | 0 | 0 | 0 | 0 | 0 | 0
O=C([O-])c1ccccc1O.[Na+] [Sodium Salicylate] (10 µM) | 0 | 0 | 0 | 0 | 0 | 0 | 0 | 0 | 0 | 0 | 0 | 0 | 0 | 0 | 0 | 0 | 0 | 0 | 0 | 0
COc1cc(F)cc([C@@H](CO)NC(=O)[C@@H](C)N2Cc3ccc(-c4nc(NC5CCOCC5)ncc4Cl)cc3C2=O)c1 [ERK1/2 inhibitor 2] (10 µM) | 0 | 0 | 0 | 0 | 0 | 0 | 0 | 0 | 0 | 0 | 0 | 0 | 0 | 0 | 0 | 0 | 0 | 0 | 0 | 0
CC(C)(C)n1nc(Cc2cccc3ccccc23)c2c(N)ncnc21 (10 µM) | 0 | 0 | 0 | 0 | 0 | 0 | 0 | 0 | 0 | 0 | 0 | 0 | 0 | 0 | 0 | 0 | 0 | 0 | 0 | 0
Oc1cc(O)cc(/C=C/c2ccc(O)c(O)c2)c1 [Piceatannol] (10 µM) | 0 | 0 | 3 | 2 | 2 | 0 | 0 | 3 | 3 | 5 | 0 | 0 | 0 | 0 | 0 | 0 | 0 | 2 | 4 | 4
CCCS(=O)(=O)Nc1ccc(F)c(C(=O)c2c[nH]c3ncc(Cl)cc23)c1F (10 µM) | 0 | 0 | 0 | 0 | 1 | 0 | 0 | 0 | 0 | 0 | 0 | 0 | 0 | 0 | 0 | 0 | 0 | 0 | 3 | 0
O=C(Nc1cc(C(F)(F)F)ccc1N1CCN(Cc2ccccn2)CC1)c1ccc(-c2ccncc2)o1 (10 µM) | 0 | 2 | 0 | 0 | 0 | 0 | 0 | 0 | 0 | 0 | 0 | 0 | 0 | 0 | 0 | 0 | 0 | 0 | 1 | 0
COCCNCCc1cccc(Nc2ncc3c(n2)-c2ccccc2[C@H](c2ccccc2F)C3)c1 [Derazantinib] (2.5 µM) | 0 | 1 | 0 | 0 | 0 | 0 | 0 | 0 | 0 | 0 | 0 | 0 | 0 | 0 | 0 | 0 | 0 | 0 | 1 | 0
COc1c(Cl)cc2c([nH]c3cnccc32)c1NC(=O)c1cccnc1C (10 µM) | 0 | 0 | 0 | 0 | 0 | 0 | 0 | 0 | 0 | 0 | 0 | 0 | 0 | 0 | 0 | 0 | 0 | 0 | 0 | 0
C[C@H](CN(C)C)Oc1nc(Nc2cc3cccc(Cl)c3cn2)cnc1C#N (10 µM) | 0 | 0 | 0 | 0 | 0 | 0 | 0 | 0 | 0 | 0 | 0 | 0 | 0 | 0 | 0 | 0 | 0 | 0 | 0 | 0
COc1cc2ncn(-c3cc(OCc4ccccc4C(F)(F)F)c(C(N)=O)s3)c2cc1OC (10 µM) | 0 | 4 | 0 | 0 | 0 | 0 | 0 | 0 | 0 | 0 | 0 | 0 | 0 | 0 | 0 | 0 | 0 | 0 | 1 | 0
CC(C)(C)S(=O)(=O)c1cc2c(Nc3ccc4scnc4c3)ncnc2cc1OCCO (2.5 µM) | 0 | 0 | 0 | 0 | 0 | 0 | 0 | 0 | 0 | 4 | 0 | 0 | 0 | 0 | 0 | 0 | 0 | 0 | 0 | 0
COc1cc(C)c(Sc2cnc(NC(=O)c3ccc(CNC(C)C(C)(C)C)cc3)s2)cc1C(=O)N1CCN(C(C)=O)CC1 (stereo not given) (2.5 µM) | 0 | 0 | 0 | 0 | 0 | 0 | 0 | 0 | 0 | 0 | 0 | 0 | 0 | 0 | 0 | 0 | 0 | 0 | 0 | 0
NS(=O)(=O)c1ccc(Nc2nc(OCC3CCCCC3)c3[nH]cnc3n2)cc1 (10 µM) | 0 | 0 | 0 | 0 | 0 | 0 | 0 | 0 | 0 | 0 | 0 | 0 | 0 | 0 | 0 | 0 | 0 | 0 | 0 | 0
COc1cc(OC)cc(-c2cc3cnc(N)nc3nc2NC(=O)NC(C)(C)C)c1 (10 µM) | 0 | 0 | 0 | 0 | 0 | 0 | 0 | 0 | 0 | 0 | 0 | 0 | 0 | 0 | 0 | 0 | 0 | 0 | 0 | 0
Cn1c(=O)n(-c2ccc(C(C)(C)C#N)cc2)c2c3cc(-c4cnc5ccccc5c4)ccc3ncc21 [Dactolisib (Tosylate)] (10 µM) | 0 | 2 | 2 | 3 | 0 | 4 | 5 | 0 | 2 | 1 | 0 | 0 | 0 | 0 | 0 | 1 | 0 | 1 | 4 | 3
Cc1c(C(=O)N2CCOc3ccc(-c4ccc(N)nc4)cc3C2)ccc(S(C)(=O)=O)c1F (10 µM) | 0 | 1 | 0 | 0 | 0 | 0 | 2 | 0 | 0 | 0 | 0 | 0 | 0 | 0 | 0 | 0 | 0 | 0 | 0 | 0
CC(C)c1ccc2oc3nc(N)c(C(=O)O)cc3c(=O)c2c1 [Amlexanox] (10 µM) | 0 | 0 | 0 | 0 | 0 | 0 | 0 | 0 | 0 | 0 | 0 | 0 | 0 | 0 | 0 | 0 | 0 | 0 | 0 | 0
O=C(/C=C/c1ccc(O)c(O)c1)c1ccc(O)cc1O [Butein] (10 µM) | 0 | 0 | 0 | 2 | 3 | 0 | 0 | 2 | 3 | 4 | 0 | 0 | 0 | 0 | 0 | 1 | 0 | 2 | 3 | 5
Cc1cccc([C@@H](CO)NC(=O)[C@@H](C)N2Cc3ccc(-c4nc(NC5CCOCC5)ncc4Cl)cc3C2=O)c1 [ERK1/2 inhibitor 1] (10 µM) | 0 | 0 | 0 | 0 | 0 | 0 | 0 | 0 | 0 | 0 | 0 | 0 | 0 | 0 | 0 | 0 | 0 | 0 | 0 | 0

Structural class: those above with a cyano group
Compound | number of time points (PRKCA) | number of time points (PTK2) | number of time points (PTK2B) | number of time points (RAF1) | number of time points [1] | number of time points (RET) | number of time points [2] | number of time points (RIOK1) | number of time points (RIPK1) | number of time points (RIPK2) | number of time points (ROR2) | number of time points (RPS6KA1) | number of time points (SPHK1) | number of time points (SRC) | number of time points (STK24) | number of time points (STK38) | number of time points (SYK) | number of time points (TEC) | number of time points (TYK2) | number of time points (ULK3)
C[C@H](CN(C)C)Oc1nc(Nc2cc3cccc(Cl)c3cn2)cnc1C#N (10 µM) | 0 | 0 | 0 | 0 | 0 | 0 | 0 | 0 | 0 | 0 | 0 | 0 | 0 | 0 | 0 | 0 | 0 | 0 | 0 | 0
Cn1c(=O)n(-c2ccc(C(C)(C)C#N)cc2)c2c3cc(-c4cnc5ccccc5c4)ccc3ncc21 [Dactolisib (Tosylate)] (10 µM) | 0 | 2 | 2 | 3 | 0 | 4 | 5 | 0 | 2 | 1 | 0 | 0 | 0 | 0 | 0 | 1 | 0 | 1 | 4 | 3
